In article PMC6642264, “Hydrophobic recognition allows the glycosyltransferase UGT76G1 to catalyze its substrate in two orientations” (Nature Communications, 2019):
These are yes or no findings as the source states them, for the method shown.

Target: UGT76G1 (S. rebaudiana) (UniProt Q6VAB4)
Test: SEC; gel filtration of purified His-tagged UGT76G1; the final gel filtration step was in 10 mM HEPES-NaOH buffer pH 7.2, 150 mM NaCl, 2 mM DTT; both purified

B1: UGT76G1 (enzyme, UniProt Q6VAB4 1-458)
chain: MENKTETTVRRRRRIILFPVPFQGHINPILQLANVLYSKGFSITIFHTNFNKPKTSNYPHFTFRFILDNDPQDERISNLPTHGPLAGMRIPIINEHGADELRRELELLMLASEEDEEVSCLITDALWYFAQSVADSLNLRRLVLMTSSLFNFHAHVSLPQFDELGYLDPDDKTRLEEQASGFPMLKVKDIKSAYSNWQILKEILGKMIKQTKASSGVIWNSFKELEESELETVIREIPAPSFLIPLPKHLTASSSSLLDHDRTVFQWLDQQPPSSVLYVSFGSTSEVDEKDFLEIARGLVDSKQSFLWVVRPGFVKGSTWVEPLPDGFLGERGRIVKWVPQQEVLAHGAIGAFWTHSGWNSTLESVCEGVPMIFSDFGLDQPLNARYMSDVLKVGVYLENGWERGEIANAIRRVMVDEEGEYIRQNARVLKQKADVSLMKGGSSYESLESLVSYISSL
binding: no binding
